Source: ChEMBL document CHEMBL3988442, “University of Dundee, Small-Polar-MMV Screening Library” (2021).

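Whole-parasite assay of Trypanosoma brucei over 72 hours; the read-out is not stated. Concentration: 30 µM. The record gives no direction; compounds that gave an IC50 in retests scored well above the rest, so higher reads as stronger inhibition. Values scatter widely below zero; nearly all retest evidence comes from the higher of the two concentrations used. About 64,000 compounds were tested under these conditions; 1.5% (about 940) showed 50% or more at least once.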

Values are the deposited “Percent Effect”, in %. How 0% and 100% were set is not recorded. Most values in the screen are low, and negative values occur. This is an unselected part of the compounds tested.

- CS(=O)(=O)NC1CCN(C(=O)c2cc3ccccc3s2)C1 (stereo not drawn) : -42.34%
- CN(Cc1ccc(C#N)cc1)Cc1noc(C(C)(C)C)n1 : 9.649%
- CO[C@@H]1CN(c2ccccc2)S(=O)(=O)[C@@]12CCNC2 : -5.639%
- O=C(NCCNCC1CNc2ccnn2C1)c1ccc(F)cc1 (stereo not drawn) : 11.12%
- Cc1nn(C)c(C)c1OCC(=O)NCC(O)c1ccccc1F (stereo not drawn) : 8.515%
- COCC1c2nnn(CC3CC3)c2CCN1C(=O)Cc1cccs1 (stereo not drawn) : -1.08%
- O=C(O)C(F)(F)F.[H][C@]12CCC[C@@]1(COCc1cccc(C)n1)CN(S(=O)(=O)N(C)C)C2 : -72.11%
- c1cc(NCc2cscn2)cc(OCCN2CCCCC2)c1 : -2.791%
- COCCOCC(=O)NC1CCN(c2ccccn2)CC1 : -62.36%
- CCc1ncc(CN2CCCN(CC3CC3)C(C(C)C)C2)cn1 (stereo not drawn) : -124.8%
- O=C(COc1ccccc1)NCC1CC1 : -50.85%
- C1CCCN(c2nc(C3CC3)ns2)CC1 : -110.1%
- CCn1ccnc1CN1CCC(=O)N(CC2CC2)C(C(C)C)C1 (stereo not drawn) : -41.69%
- [H][C@]12CCN(C(=O)NC)CC[C@@]1([H])S(=O)(=O)N(Cc1cccc(OC)c1)C2 : -84.13%
- O=C(O)C(F)(F)F.O=C(O)C(F)(F)F.[H][C@@]12CN(C(=O)N(C)C)C[C@]1([H])OCCN2CCN(C)C : -49.9%
- CO[C@@H]1CCN(C(=O)Cc2cccc(F)c2)[C@H]1Cc1cccnc1.O=C(O)C(F)(F)F : -18.97%
- Cc1ncc(CN2CCC(n3cc(-c4ccc(F)cc4)nn3)CC2)cn1 : 1.841%
- [H][C@]12CC[C@]([H])(CN(Cc3ccncc3)C1)N(C(=O)C1CCOCC1)C2 : -54.74%
- c1cc2nccc(CC3CCCN(Cc4ncc[nH]4)CC3)c2cn1 (stereo not drawn) : 17.12%
- Cc1cc(C2CCN(C(=O)c3cnn(C)c3)CC2)ccn1 : -9.515%
- COc1ccc(-c2nccn2CC(O)CN2CCCC2)c(F)c1 (stereo not drawn) : -2.658%
- COCC[C@]1(O)CCN(C(=O)CCc2cnn(C)c2)C[C@H]1C : -7.746%
- COc1cccc(-c2nc(C)c(C(=O)NC(CO)CCSC)s2)c1 (stereo not drawn) : 39.63%
- Nc1cc2c(nn1)CCN(C(=O)CCc1ccc3c(c1)OCO3)C2 : -14.72%
- Cc1ccc(NC2(C(=O)N3CCn4cncc4C3)CCCCC2)cc1C : -20.4%
- Cc1nn(-c2ccccc2)c(C)c1CNC(=O)NC1CC(=O)N(C)C1 (stereo not drawn) : -48.27%
- CC1(C)OCC(CNC(=O)c2cnn(-c3cc(Cl)ccc3Cl)c2N)O1 (stereo not drawn) : -21.95%
- CN(Cc1cnccn1)c1cncc(Br)c1 : -38.9%
- O=C(O)C(F)(F)F.O=C(c1ccncc1F)N1CC2CC1(C(=O)N1CCCC1)C2 : -6.25%
- N#Cc1cc(N2CCC(S(N)(=O)=O)CC2)c2ccccc2n1 : -28.38%
- CC(C)c1cc(C(=O)N2CCCC(Cn3cc(CO)nn3)C2)on1 (stereo not drawn) : -14.7%
- O=C(NCC1(c2cccc(F)c2)CC1)N1CCC2(CCOC2)C1 (stereo not drawn) : 0.7236%
- CC(C)N(C)Cc1cc(=O)n2c(n1)CN(C(=O)c1ccnnc1)CCC2 : -45.27%
- CN(CCCC#N)C1CCCN(Cc2noc(C3CC3)n2)C1 (stereo not drawn) : -40.87%
- CN(CCc1cnn(C)c1)C(=O)C1COc2ccccc2C1 (stereo not drawn) : 4.786%
- Cn1cc(CN2CCCC3(CCCN3S(C)(=O)=O)C2)cn1.O=C(O)C(F)(F)F (stereo not drawn) : 1.858%
- c1ccc2c(N3CCSCC3)cnnc2c1 : 9.871%
- CC(=O)c1cc(C(=O)N2CCC3(CC2)Nc2ccccc2NC3=O)cs1 : -27.04%
- CN1CCc2nnc(C3CCCN3S(=O)(=O)c3ccc(F)cc3)n2CC1 (stereo not drawn) : 7.009%
- CCCc1cc(=O)[nH]c2nnc(SCC(=O)NC(C)(C)C)n12 : 0.9879%
- CC(=O)N1CCN(C(=O)c2ccc(Sc3ccccn3)cc2)CC1 : -1.775%
- CCN(Cc1noc(CC(C)C)n1)Cc1ncccc1C(=O)O : -14.65%
- CN1CC(=O)N(c2cccc(F)c2)CC12CCN(Cc1ccsc1)C2.O=C(O)C(F)(F)F.O=C(O)C(F)(F)F (stereo not drawn) : -22.55%
- CSCC(=O)N1CCc2c(cnc(C)c2-c2noc(-c3cscn3)n2)C1 : 9.356%
- CCN(Cc1ccc(CN(C)C)cc1)C(=O)c1ccncc1O : -25.69%
- CC(=O)N(Cc1noc(C)n1)C1CCN(CC(=O)N(C)C2CC2)C1 (stereo not drawn) : -10.53%
- CNC(=O)c1ccccc1-c1ccc(S(C)(=O)=O)cc1 : 12.95%
- COc1ccc(OC)c(C(=O)N(C)Cc2ncc(C)c(OC)c2C)c1 : 14.72%
- O=C(CCCc1ccccn1)NCC(O)c1ccccc1Cl (stereo not drawn) : -4.24%
- O=C(CCc1cn[nH]c1)N1C[C@H](CO)C[C@H](CN2CCOCC2)C1 : 4.191%
- NC(=O)c1sc2ccccc2c1C1CCN(S(=O)(=O)N2CCOCC2)C1 (stereo not drawn) : 7.588%
- Cc1cc(CN2CCC3(CC2)C(=O)NCCN3CC2CC2)oc1C : 11.82%
- O=C(O)C(F)(F)F.[H][C@]12CCN(S(=O)(=O)CC)CC[C@@]1([H])S(=O)(=O)CCN2Cc1cccc(C)n1 : -36.72%
- CC(C)c1cc(CN(C)C(=O)CN2CCC(C(N)=O)CC2)no1 : -4.372%
- CCc1ccc(NC(=O)c2ncc(C(N)=O)cc2Cl)cc1F : -15.93%
- CC(C)CNC(=O)CNc1c(NCc2ccco2)c(=O)c1=O : -14.85%
- CC(C)(C)CC(=O)N[C@@H]1CO[C@H](CNC(=O)c2ccncc2)[C@H]1O : -9.982%

The first 5 entries again:

| SMILES | effect |
|---|---|
| `CS(=O)(=O)NC1CCN(C(=O)c2cc3ccccc3s2)C1` (stereo not drawn) | -42.34 |
| `CN(Cc1ccc(C#N)cc1)Cc1noc(C(C)(C)C)n1` | 9.649 |
| `CO[C@@H]1CN(c2ccccc2)S(=O)(=O)[C@@]12CCNC2` | -5.639 |
| `O=C(NCCNCC1CNc2ccnn2C1)c1ccc(F)cc1` (stereo not drawn) | 11.12 |
| `Cc1nn(C)c(C)c1OCC(=O)NCC(O)c1ccccc1F` (stereo not drawn) | 8.515 |